Assay results as given in PMC10465003, “The AAA-ATPase Yta4/ATAD1 interacts with the mitochondrial divisome to inhibit mitochondrial fission” (PLOS Biology, 2023).
No constants are given. Whether binding was seen depends on the method and setting. A result given as binding can be weak or reduced; the word gives no strength. For part of these data: Sequences can lack the tags named with a protein. For part of these data: Binding seen in cells or lysates may run through a third protein.

Legend:
[1] = biological target: T1, GST-Mdv1(319–651) (Schizosaccharomyces pombe) (UniProt Q9P7I3); assay: pull-down; GST-fused bait on glutathione Sepharose 4B resins, purified prey; TBST (0.5% Triton X-100) with 5% glycerol, 4°C, 2 h; western blot; both purified
T1 sequence: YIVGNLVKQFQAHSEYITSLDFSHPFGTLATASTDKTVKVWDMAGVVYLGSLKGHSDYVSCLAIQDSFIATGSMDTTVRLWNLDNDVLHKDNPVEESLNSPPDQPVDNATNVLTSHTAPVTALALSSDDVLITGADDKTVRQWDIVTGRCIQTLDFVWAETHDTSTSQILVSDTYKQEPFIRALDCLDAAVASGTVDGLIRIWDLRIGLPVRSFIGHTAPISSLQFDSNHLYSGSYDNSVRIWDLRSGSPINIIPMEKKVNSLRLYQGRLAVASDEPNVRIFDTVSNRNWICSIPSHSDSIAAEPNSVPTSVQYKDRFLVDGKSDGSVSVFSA

[2] = biological target: T2, GFP-Mdv1 (Schizosaccharomyces pombe) (UniProt Q9P7I3); assay: co-IP; S. pombe cell lysate in TBS with 0.5% Triton X-100; antibodies against GFP or Dnm1 on Dynabeads protein G, 4°C, 2 h; western blot with antibodies against Myc, GFP and Dnm1
T2 sequence: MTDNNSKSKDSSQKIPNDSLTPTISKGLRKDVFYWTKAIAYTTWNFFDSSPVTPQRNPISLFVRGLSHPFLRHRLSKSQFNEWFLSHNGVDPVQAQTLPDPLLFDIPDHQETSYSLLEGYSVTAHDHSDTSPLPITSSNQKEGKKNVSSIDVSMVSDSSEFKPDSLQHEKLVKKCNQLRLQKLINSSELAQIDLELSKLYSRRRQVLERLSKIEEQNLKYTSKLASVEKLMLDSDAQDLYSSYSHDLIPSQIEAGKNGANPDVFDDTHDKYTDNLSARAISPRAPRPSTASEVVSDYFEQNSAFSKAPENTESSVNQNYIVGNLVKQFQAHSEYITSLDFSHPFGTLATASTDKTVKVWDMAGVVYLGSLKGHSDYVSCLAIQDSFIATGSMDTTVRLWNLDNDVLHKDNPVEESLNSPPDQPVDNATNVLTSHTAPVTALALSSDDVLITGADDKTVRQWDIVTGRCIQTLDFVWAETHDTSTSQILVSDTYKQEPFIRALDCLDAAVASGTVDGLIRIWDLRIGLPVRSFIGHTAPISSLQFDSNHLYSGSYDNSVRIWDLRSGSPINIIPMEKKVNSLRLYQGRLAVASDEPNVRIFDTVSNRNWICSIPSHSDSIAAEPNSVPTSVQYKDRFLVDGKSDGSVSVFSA

[3] = biological target: T3, endogenous Dnm1 (Schizosaccharomyces pombe (endogenous in S. pombe cells)) (UniProt Q09748); assay: as above
T3 sequence: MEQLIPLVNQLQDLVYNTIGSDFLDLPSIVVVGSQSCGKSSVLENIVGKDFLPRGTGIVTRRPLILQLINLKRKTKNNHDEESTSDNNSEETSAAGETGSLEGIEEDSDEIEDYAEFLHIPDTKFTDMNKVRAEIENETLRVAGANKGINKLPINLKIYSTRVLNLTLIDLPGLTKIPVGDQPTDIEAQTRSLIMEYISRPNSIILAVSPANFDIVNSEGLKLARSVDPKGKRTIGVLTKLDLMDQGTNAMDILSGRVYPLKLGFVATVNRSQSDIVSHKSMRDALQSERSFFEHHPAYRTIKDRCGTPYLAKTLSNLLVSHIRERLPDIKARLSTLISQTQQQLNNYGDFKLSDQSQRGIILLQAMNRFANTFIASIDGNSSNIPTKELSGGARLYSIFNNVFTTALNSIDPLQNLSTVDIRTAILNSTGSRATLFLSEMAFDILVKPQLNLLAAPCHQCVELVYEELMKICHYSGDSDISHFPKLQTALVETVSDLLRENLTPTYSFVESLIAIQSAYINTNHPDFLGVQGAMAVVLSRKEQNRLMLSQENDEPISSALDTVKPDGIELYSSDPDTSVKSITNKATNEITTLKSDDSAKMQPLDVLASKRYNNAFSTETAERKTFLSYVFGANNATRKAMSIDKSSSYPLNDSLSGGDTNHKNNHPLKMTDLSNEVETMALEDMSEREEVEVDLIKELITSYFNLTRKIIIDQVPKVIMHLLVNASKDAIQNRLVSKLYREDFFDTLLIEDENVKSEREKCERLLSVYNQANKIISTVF

[4] = biological target: T4, GFP-Fis1 (Schizosaccharomyces pombe) (UniProt Q9USZ8); assay: as above
T4 sequence: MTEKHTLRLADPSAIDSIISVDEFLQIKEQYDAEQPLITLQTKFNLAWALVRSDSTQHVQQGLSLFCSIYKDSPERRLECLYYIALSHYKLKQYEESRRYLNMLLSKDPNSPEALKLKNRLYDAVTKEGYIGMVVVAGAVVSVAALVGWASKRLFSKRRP

[5] = biological target: GST-Yta4(33–355) (Schizosaccharomyces pombe); assay: pull-down; GST-fused bait on glutathione Sepharose 4B resins, purified prey; TBST (0.5% Triton X-100) with 5% glycerol, 4°C, 2 h; western blot; both purified
[6] = biological target: GST-Yta4(33–355) (Schizosaccharomyces pombe); assay: pull-down; GST-fused bait on glutathione resins, His-Fis1(a.a. 1–128) as prey; TBST with 5% glycerol and 40 mM imidazole, 4°C, 2 h; with Yta4 hexamers 0 or 1 mM ATP; both purified

In the case of “His-Yta4(a.a. 33–355) (Schizosaccharomyces pombe) (domain or fragment)”, the binding [1] is reported as “binds”.

Yta4-13Myc (Schizosaccharomyces pombe) was tested, and the binding [2] was “binds”, the binding [3] was “binds” and the binding [4] was “binds”.

B1: Dnm1 (enzyme, Schizosaccharomyces pombe, UniProt Q09748 1-781, looked up)
chain: MEQLIPLVNQLQDLVYNTIGSDFLDLPSIVVVGSQSCGKSSVLENIVGKDFLPRGTGIVTRRPLILQLINLKRKTKNNHDEESTSDNNSEETSAAGETGSLEGIEEDSDEIEDYAEFLHIPDTKFTDMNKVRAEIENETLRVAGANKGINKLPINLKIYSTRVLNLTLIDLPGLTKIPVGDQPTDIEAQTRSLIMEYISRPNSIILAVSPANFDIVNSEGLKLARSVDPKGKRTIGVLTKLDLMDQGTNAMDILSGRVYPLKLGFVATVNRSQSDIVSHKSMRDALQSERSFFEHHPAYRTIKDRCGTPYLAKTLSNLLVSHIRERLPDIKARLSTLISQTQQQLNNYGDFKLSDQSQRGIILLQAMNRFANTFIASIDGNSSNIPTKELSGGARLYSIFNNVFTTALNSIDPLQNLSTVDIRTAILNSTGSRATLFLSEMAFDILVKPQLNLLAAPCHQCVELVYEELMKICHYSGDSDISHFPKLQTALVETVSDLLRENLTPTYSFVESLIAIQSAYINTNHPDFLGVQGAMAVVLSRKEQNRLMLSQENDEPISSALDTVKPDGIELYSSDPDTSVKSITNKATNEITTLKSDDSAKMQPLDVLASKRYNNAFSTETAERKTFLSYVFGANNATRKAMSIDKSSSYPLNDSLSGGDTNHKNNHPLKMTDLSNEVETMALEDMSEREEVEVDLIKELITSYFNLTRKIIIDQVPKVIMHLLVNASKDAIQNRLVSKLYREDFFDTLLIEDENVKSEREKCERLLSVYNQANKIISTVF
notes: Dnm1, fission yeast dynamin-related GTPase; also called Dnm1(WT); recombinant Dnm1; source: E. coli Rosseta, purified (Ni-NTA, sumo protease, size-exclusion chromatography); not shown: His-sumo, N-terminal, cleaved
With B1 the binding [5] was “binds”.

B2: His-Fis1(1–128) (domain or fragment, Schizosaccharomyces pombe, UniProt Q9USZ8 1-128, looked up)
chain: MTEKHTLRLADPSAIDSIISVDEFLQIKEQYDAEQPLITLQTKFNLAWALVRSDSTQHVQQGLSLFCSIYKDSPERRLECLYYIALSHYKLKQYEESRRYLNMLLSKDPNSPEALKLKNRLYDAVTKE
notes: also called His-Fis1(∆TM); Fis1(∆TM); source: E. coli BL21, purified (Ni-NTA, size-exclusion chromatography); not shown: His tag, N-terminal, kept
For B2, the binding [6] was “binds”.
